Screen size: about 310,000 compounds; about 17,000 (5.5%) were called active. The shares of active, inactive and inconclusive entries below differ from those in the screen. Calls come from the whole dose curve; as a rule, active = well fitted inhibition curve with a large enough effect; inconclusive = small, poorly fitted or top-dose-only effect, or effect the other way; inactive = no such curve, though single readings can be large or run the other way. Potencies beside an inconclusive call are fits to weak or partial responses and may not hold up.
Target: Nuclear receptor ROR-gamma (Mus musculus) (UniProt P51450)
Assay: qHTS for inhibitors of ROR gamma transcriptional activity; note: nearly all actives have a fitted effect of over 60% in size
Settings: Drosophila S2 Gal4-RORgamma UAS-luciferase reporter, 20 h; activity change, negative = inhibition: at 53.6 µM (top of the series)
Excerpt: NIH Molecular Libraries Probe Production Network [MLPCN] NIH Chemical Genomics Center [NCGC] MLPCN Grant: R03 DA026211-01 Assay Provider: Dan Littman, New York University Assay Overview: The retinoic acid-related orphan receptor (ROR) gamma is a transcription factor that has a central role in the differentiation of Th17 cells, a subset of T helper cells that secrete the inflammatory cytokines IL-17, IL-17F, and IL-22. Th17 cells have been implicated in graft versus host disease, autoimmune disease and asthma. ROR gamma is induced in naive T helper cells in the presence of TGF-beta combined with IL-6, IL-21, or IL-23, and thereafter directs the expression of the Th17 lineage cytokines. To study the mechanism of action of ROR gamma, an insect cell-based assay was screened. This Drosophila Schneider cell line was stably transfected with two vectors: a gene expressing a fusion of the Gal4 DNA binding domain and ROR gamma transactivation domain under the control of the metallothionine promoter and a Photinus luciferase reporter regulated by the Gal4 binding site enhancer, UAS. […] Small molecule inhibitors of ROR gamma activity are detected by a decrease in luciferase reporter activity.
Assay Protocol Summary: For screening, 600 cells in 4 uL/well were dispensed into white solid 1536-well plates (Grenier) using a solenoid-based dispenser. Following transfer of 23 nL compound or DMSO vehicle by a pin tool, the plates were incubated 1 hr at ambient temperature, and 1 uL/well copper sulfate (700 uM final concentration) was added. The plates were centrifuged 15 s at 1000 RPM and incubated 20 hr at ambient temperature. After addition of 1.5 uL Photinus luciferase detection reagent, the plates were incubated 10 min at ambient temperature and then read by an ViewLux (Perkin Elmer) to detect luminescence. Keywords: NIH Roadmap, MLPCN, MLI, MLSMR, qHTS, NCGC, qHTS, nuclear hormone receptor, retinoic acid-related orphan receptor, ROR gamma
% is set by controls: 0 for no effect and ±100 for the full control effect; potency is the fitted concentration of half-maximal effect.

By UniProt entry, the sequences of proteins in these tests, tags left out. Where a name states a change or a piece, a line headed by the entry shows the natural chain unless it says otherwise.
UniProt P51450: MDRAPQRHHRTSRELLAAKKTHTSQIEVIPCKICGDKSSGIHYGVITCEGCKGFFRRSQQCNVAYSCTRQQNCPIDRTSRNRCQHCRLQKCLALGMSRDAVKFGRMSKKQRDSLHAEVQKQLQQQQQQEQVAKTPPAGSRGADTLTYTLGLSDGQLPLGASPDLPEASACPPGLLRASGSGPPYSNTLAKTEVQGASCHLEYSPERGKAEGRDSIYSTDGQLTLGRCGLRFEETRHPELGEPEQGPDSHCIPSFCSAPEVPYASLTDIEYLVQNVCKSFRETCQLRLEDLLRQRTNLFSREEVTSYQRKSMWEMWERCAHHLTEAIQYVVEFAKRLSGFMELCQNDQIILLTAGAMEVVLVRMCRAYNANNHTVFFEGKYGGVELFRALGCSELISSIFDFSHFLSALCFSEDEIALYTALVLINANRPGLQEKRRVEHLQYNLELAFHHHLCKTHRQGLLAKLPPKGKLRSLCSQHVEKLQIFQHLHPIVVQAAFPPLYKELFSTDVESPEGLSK

| Compound | Potency | activity change, negative = inhibition |
| --- | --- | --- |
| CCNC(=S)N1CCC(C(=O)c2ccc(Cl)cc2)CC1 | inactive |  |
| COc1ccc(N2CCN(C(=O)Cc3ccc(OC)c(OC)c3)CC2)cc1 | inconclusive: 17.8 µM [activator, partial curve] |  |
| O=C1c2cccc(OCc3ccc(F)cc3)c2CCN1Cc1ccc(F)cc1 | inconclusive: 25.1 µM [activator, single point] |  |
| Cc1ccc2nc(-c3ccncc3)c(NC3CCCCC3)n2c1 | inactive |  |
| CC(=O)c1c(C)[nH]c(C(=O)CSc2nnc(-c3ccccc3)o2)c1C | inconclusive: 11.2 µM [activator, single point] |  |
| O=C(Nc1cc2c(cc1Br)OCCO2)c1cccnc1 | inconclusive: 12.6 µM [activator, single point] |  |
| Cc1nn(CC(=O)NCc2cccs2)c(=O)c2nn(-c3ccccc3)c(C)c12 | inactive |  |
| C=CCn1c(SCc2cc(=O)n3ccsc3n2)nc2sc(C)c(C)c2c1=O | inactive |  |
| CN(Cc1ccco1)c1ccnc(-c2cccc(NS(C)(=O)=O)c2)n1 | inconclusive: 8.91 µM [activator, partial curve] |  |
| COc1ccccc1-c1csc(NC(=O)c2cc(-c3cccs3)nc3ccccc23)n1 | inconclusive: 5.01 µM [inhibitor, single point] |  |
| CCCOc1ccc(N2C(=O)CC(N(Cc3ccc(OC)cc3)C(=S)Nc3ccccc3)C2=O)cc1 (stereo not given) | inconclusive: 5.01 µM [activator, full curve] |  |
| Cn1cc([N+](=O)[O-])c(C(=O)Nc2nc(-c3ccc(Cl)cc3)cs2)n1 | inactive |  |
| Cc1ccc2cc(CN(c3ccccc3C)S(=O)(=O)c3ccccc3)c(=O)[nH]c2c1 | inactive |  |
| COc1cccc(C(=S)N2CCCC2)c1OC | inconclusive: 5.01 µM [activator, partial curve] |  |
| CCc1cc2cc(C)cc(C)c2[nH]c1=S | active: 7.08 µM |  |
| CSCCNC(=O)c1ccc(OC2CCN(S(=O)(=O)N(C)C)CC2)cc1 |  | inactive: 16.6% [at 1.91 µM] |
| COc1cccc(NC(=O)Cn2cc(C=O)c3ccccc32)c1 | inconclusive: 14.1 µM [activator, single point] |  |
| Cc1ccc(NC(=O)c2ccc(N/N=C/c3cccc(O)c3)c([N+](=O)[O-])c2)cc1 | inconclusive: 35.5 µM [inhibitor, single point] |  |
| Cc1nnc(NC(=O)c2oc3ccccc3c2C)s1 | inconclusive: 35.5 µM [inhibitor, single point] |  |
| O=[N+]([O-])c1ccc(O)c(/C=N/Nc2ncnc3c2cnn3-c2ccccc2)c1 | inconclusive: 17.8 µM [inhibitor, single point] |  |
| CN(c1ccc(C(=O)NC2CCCC2)cc1)S(=O)(=O)c1ccccc1 | inactive |  |
| CCOC(=O)c1c(NC(=O)CSc2c[nH]c3ccccc23)sc2c1CCCC2 | inconclusive: 31.6 µM [activator, single point] |  |
| Cc1cccc(-c2oc3ccc(-c4ccc5c(c4)OCO5)cc3c2/C=C/c2ccc(N)cc2)c1 | inactive |  |
| CCOC(=O)c1cnn2c(C(F)(F)F)cc(-c3ccco3)nc12 | inactive |  |

| Compound | Potency | activity change, negative = inhibition |
| --- | --- | --- |
| C=CCN=c1scc(-c2ccco2)n1/N=C/c1ccc(O)c(O)c1O | active: 3.16 µM |  |
| CN(C(=O)c1cccc(NC(=O)Cc2ccccc2)c1)c1ccccc1 | inconclusive: 15.8 µM [activator, single point] |  |
| O=C(Nc1cccc(C(=O)Nc2ccc(Br)cc2)c1)c1ccccc1 | inconclusive: 0.631 µM [activator, full curve] |  |
| O=C(CCNS(=O)(=O)c1cccc2nonc12)N1CCN(c2cccc(Cl)c2)CC1 | inconclusive: 20 µM [activator, single point] |  |
| Cc1nc(C(=O)NC2CC2)sc1C1(C)CC(c2cccc([N+](=O)[O-])c2)=NO1 (stereo not given) | inconclusive: 1.26 µM [activator, partial curve] |  |
| COc1ccc(/C=C(\C#N)C(=O)OCC(=O)Nc2ccc(-c3nc4ccc(C)cc4s3)cc2)cc1 | active: 0.501 µM |  |
| CCN(CC)CCNC(=O)c1cc(S(C)(=O)=O)ccc1OC | inconclusive: 12.6 µM [inhibitor, single point] |  |
| CCN(CC)S(=O)(=O)c1ccc(Cl)c(C(=O)Nc2cc(C)nn2-c2ccccc2)c1 | inactive |  |
| Clc1ccc(OCc2nn3c(-c4ccco4)nnc3s2)c(Cl)c1 | inconclusive: 0.355 µM [activator, full curve, poor fit] |  |
| COc1ccc(S(=O)(=O)NCc2cccnc2)cc1Br | inconclusive: 2.82 µM [activator, partial curve] |  |
| c1ccc2c(c1)Cc1cc3cc4c(cc3nc1-2)OCO4 | active: 2.24 µM |  |
| COc1cc([N+](=O)[O-])cc(/C=N/NC(=O)C(C)Nc2cccc3ccccc23)c1O (stereo not given) | active: 0.398 µM |  |
| CCC(CC)=NNc1ccc(S(N)(=O)=O)cc1[N+](=O)[O-] | inactive |  |
| Cc1nc(N/N=C/c2ccc(Br)cc2)cc(N2CCOCC2)n1 | inconclusive: 14.1 µM [activator, partial curve] |  |
| COc1ccc2nc3c(cc2c1)c(NC(=O)c1cccs1)nn3CC(C)C | inactive |  |
| Cc1cc(C)nc(SCCCNCc2ccc(Br)cc2)n1 | inconclusive: 2 µM [activator, partial curve, poor fit] |  |
| CN(Cc1ccco1)C(=O)c1ccc(CNS(=O)(=O)c2ccc3c(c2)C(C)(C)C(=O)N3C)cc1 | inconclusive: 10 µM [activator, partial curve] |  |
| CC(C)CCNC(=O)C(c1ccco1)N(Cc1ccc(F)cc1)C(=O)c1snc(C(N)=O)c1N (stereo not given) | inconclusive: 17.8 µM [activator, single point] |  |
| COCCNC(=S)NCCc1ccc(Cl)cc1Cl | active: 6.31 µM |  |
| CCC1(c2ccc(F)cc2)NC(=O)N(CC(=O)NCc2ccccc2Cl)C1=O (stereo not given) | inactive |  |
| Cn1nccc1C(=O)N1CCc2c([nH]c3ccccc23)C1c1ccc(F)cc1 (stereo not given) | inconclusive: 35.5 µM [activator, single point] |  |
| Cc1cc(C(=O)COC(=O)c2ccc[nH]c2=O)c(C)n1-c1ccccc1F | inconclusive: 1.12 µM [inhibitor, full curve, poor fit] |  |
| Cc1cc(C)cc(C(=O)N2CC(C)SC2=Nc2cccc(S(=O)(=O)N(C)C)c2)c1 (stereo not given) | inconclusive: 14.1 µM [activator, partial curve, poor fit] |  |
| Clc1ccc(CO/N=C2\CCCc3nonc32)cc1 | inactive |  |

Part of the list above, as comma-separated lines.
Compound,Potency,"activity change, negative = inhibition"
O=C1c2cccc(OCc3ccc(F)cc3)c2CCN1Cc1ccc(F)cc1,"inconclusive: 25.1 µM [activator, single point]",
Cc1ccc2nc(-c3ccncc3)c(NC3CCCCC3)n2c1,inactive,
CC(=O)c1c(C)[nH]c(C(=O)CSc2nnc(-c3ccccc3)o2)c1C,"inconclusive: 11.2 µM [activator, single point]",
O=C(Nc1cc2c(cc1Br)OCCO2)c1cccnc1,"inconclusive: 12.6 µM [activator, single point]",
Cc1nn(CC(=O)NCc2cccs2)c(=O)c2nn(-c3ccccc3)c(C)c12,inactive,

The list goes on:

| Compound | Potency | activity change, negative = inhibition |
| --- | --- | --- |
| CCCn1c(SCC(=O)Nc2sc(C)c(C)c2C(=O)OC)nc2c1c(=O)n(C)c(=O)n2C | inconclusive: 0.005 µM [activator, full curve, poor fit] |  |
| CC(C)(C)c1ccc(-c2cc(-c3ccccc3O)[nH]n2)cc1 | inconclusive: 3.55 µM [inhibitor, full curve] |  |
| CCc1cc(C(=O)Cc2nc3ccccc3[nH]2)c(O)cc1O | inconclusive: 3.98 µM [activator, partial curve, poor fit] |  |
| O=C(Nc1ccc2nsnc2c1)N1CCCCCC1 | inconclusive: 0.158 µM [activator, partial curve, poor fit] |  |
| C(=N\Nc1ccccn1)/c1cccnc1 | inactive |  |
| COc1ccc(-n2c(CNC(=O)COc3ccc(Cl)cc3Cl)n[nH]c2=S)cc1 | active: 10 µM |  |
| COC(CNC(=O)c1ccc(Cn2c(=S)[nH]c3cc4c(cc3c2=O)OCO4)cc1)OC | inactive |  |
| CC(C)Nc1ccc(-n2nc3ccccc3[n+]2[O-])cc1 | inconclusive: 8.91 µM [inhibitor, partial curve, poor fit] |  |
| CC1(C)CN2C(=S)N(c3ccccc3)C(c3ccccc3)N2C1 (stereo not given) | inconclusive: 35.5 µM [inhibitor, single point] |  |
| CCc1cccc(CC)c1-n1c(-c2cccnc2)n[nH]c1=S | active: 3.55 µM |  |
| CCc1c(C)nc2cc(-c3cccc(Br)c3)[nH]n2c1=O | inconclusive: 22.4 µM [inhibitor, single point] |  |
| COc1cc(C(=O)Nc2cccc(NC(=O)c3cccs3)c2)cc(OC)c1OC | inconclusive: 3.98 µM [activator, full curve] |  |
| COCCn1c(C)cc(C(=O)CSc2ccc(NC(C)=O)cc2)c1C | inconclusive: 25.1 µM [inhibitor, single point] |  |
| CCN(CC)CCCn1c(=S)[nH]c2ccccc2c1=O | inconclusive: 14.1 µM [inhibitor, single point] |  |
| C=CC(C1=CC(=O)C=CC1=O)c1ccc(O)cc1 (stereo not given) | inconclusive: 28.2 µM [inhibitor, single point] |  |
| CC(=O)NCCNc1nc(-c2cccc(NS(C)(=O)=O)c2)nc2ccccc12 | inactive |  |
| O=c1cnc2cnc(Nc3ccccc3)nc2n1C1CC1 | inconclusive: 11.2 µM [activator, partial curve] |  |
| Cc1oc(-c2ccc3c(c2)OCCO3)cc1C(=O)NCC(=O)O | active: 7.08 µM |  |
| O=C(CCCN1CC=C(n2c(=O)[nH]c3ccccc32)CC1)c1ccc(F)cc1 | inconclusive: 7.94 µM [activator, partial curve] |  |
| CN(C)S(=O)(=O)c1ccc(S(=O)(=O)N2CCCC(C(=O)NC3CCCC3)C2)cc1 (stereo not given) | inconclusive: 3.16 µM [activator, partial curve] |  |
| NS(=O)(=O)c1ccc(NC2=CC(c3ccc(F)cc3)N(c3ccc(S(N)(=O)=O)cc3)C2=O)cc1 (stereo not given) | inconclusive: 14.1 µM [activator, partial curve] |  |
| O=C(Nc1ccccc1)Nc1ccccc1Br | inconclusive: 22.4 µM [inhibitor, single point] |  |

From PubChem BioAssay AID2551 (National Center for Advancing Translational Sciences (NCATS), 2010)
